{
  "source": "patent US11427612",
  "about": "(dated 2022)",
  "assay": "general procedure: Fmoc solid-phase peptide synthesis; MeDbz-Gly-Rink (MeDbz linker on Rink or Wang resin)",
  "settings": "whole synthesis",
  "data": [
    {"substance": "GLP-1(7-36)", "values": [
      {"measurement": "isolated yield", "value": 4, "unit": "%"}
    ]},
    {"substance": "GLP-1(7-36)-MeNbz-Gly-NH2", "values": [
      {"measurement": "crude yield", "value": 45, "unit": "%"}
    ]}
  ]
}
